Measured values taken from PMC11394131.
These are yes or no findings as the source states them, for the method shown. Binding seen in cells or lysates may run through a third protein. Here binding means that the protein was enriched with, or labelled near, the bait; the list need not be complete.

Sequences of proteins named here, by UniProt entry; tags and fusion partners are left off. Residues count along the entry.
UniProt A2IDD5: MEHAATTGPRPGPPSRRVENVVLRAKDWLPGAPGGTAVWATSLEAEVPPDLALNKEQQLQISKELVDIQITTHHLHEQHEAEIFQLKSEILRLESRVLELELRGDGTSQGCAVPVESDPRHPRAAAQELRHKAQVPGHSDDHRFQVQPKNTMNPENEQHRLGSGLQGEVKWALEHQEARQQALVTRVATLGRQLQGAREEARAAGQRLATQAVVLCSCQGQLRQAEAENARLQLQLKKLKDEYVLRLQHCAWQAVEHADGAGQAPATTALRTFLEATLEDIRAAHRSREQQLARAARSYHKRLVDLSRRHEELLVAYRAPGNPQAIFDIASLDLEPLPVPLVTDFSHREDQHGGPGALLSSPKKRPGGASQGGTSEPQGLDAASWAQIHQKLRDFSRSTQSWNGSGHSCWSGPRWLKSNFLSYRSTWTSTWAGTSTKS
UniProt P31415, residues 35-396: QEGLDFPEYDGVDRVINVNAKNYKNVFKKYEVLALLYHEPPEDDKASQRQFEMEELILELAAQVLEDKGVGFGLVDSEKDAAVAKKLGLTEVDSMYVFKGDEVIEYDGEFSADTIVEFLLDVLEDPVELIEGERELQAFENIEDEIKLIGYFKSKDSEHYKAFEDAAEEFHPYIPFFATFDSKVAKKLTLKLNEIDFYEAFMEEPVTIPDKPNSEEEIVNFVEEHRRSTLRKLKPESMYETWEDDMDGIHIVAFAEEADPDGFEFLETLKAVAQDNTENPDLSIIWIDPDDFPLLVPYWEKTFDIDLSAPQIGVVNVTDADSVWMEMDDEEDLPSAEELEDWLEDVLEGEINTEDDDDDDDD
UniProt P12882: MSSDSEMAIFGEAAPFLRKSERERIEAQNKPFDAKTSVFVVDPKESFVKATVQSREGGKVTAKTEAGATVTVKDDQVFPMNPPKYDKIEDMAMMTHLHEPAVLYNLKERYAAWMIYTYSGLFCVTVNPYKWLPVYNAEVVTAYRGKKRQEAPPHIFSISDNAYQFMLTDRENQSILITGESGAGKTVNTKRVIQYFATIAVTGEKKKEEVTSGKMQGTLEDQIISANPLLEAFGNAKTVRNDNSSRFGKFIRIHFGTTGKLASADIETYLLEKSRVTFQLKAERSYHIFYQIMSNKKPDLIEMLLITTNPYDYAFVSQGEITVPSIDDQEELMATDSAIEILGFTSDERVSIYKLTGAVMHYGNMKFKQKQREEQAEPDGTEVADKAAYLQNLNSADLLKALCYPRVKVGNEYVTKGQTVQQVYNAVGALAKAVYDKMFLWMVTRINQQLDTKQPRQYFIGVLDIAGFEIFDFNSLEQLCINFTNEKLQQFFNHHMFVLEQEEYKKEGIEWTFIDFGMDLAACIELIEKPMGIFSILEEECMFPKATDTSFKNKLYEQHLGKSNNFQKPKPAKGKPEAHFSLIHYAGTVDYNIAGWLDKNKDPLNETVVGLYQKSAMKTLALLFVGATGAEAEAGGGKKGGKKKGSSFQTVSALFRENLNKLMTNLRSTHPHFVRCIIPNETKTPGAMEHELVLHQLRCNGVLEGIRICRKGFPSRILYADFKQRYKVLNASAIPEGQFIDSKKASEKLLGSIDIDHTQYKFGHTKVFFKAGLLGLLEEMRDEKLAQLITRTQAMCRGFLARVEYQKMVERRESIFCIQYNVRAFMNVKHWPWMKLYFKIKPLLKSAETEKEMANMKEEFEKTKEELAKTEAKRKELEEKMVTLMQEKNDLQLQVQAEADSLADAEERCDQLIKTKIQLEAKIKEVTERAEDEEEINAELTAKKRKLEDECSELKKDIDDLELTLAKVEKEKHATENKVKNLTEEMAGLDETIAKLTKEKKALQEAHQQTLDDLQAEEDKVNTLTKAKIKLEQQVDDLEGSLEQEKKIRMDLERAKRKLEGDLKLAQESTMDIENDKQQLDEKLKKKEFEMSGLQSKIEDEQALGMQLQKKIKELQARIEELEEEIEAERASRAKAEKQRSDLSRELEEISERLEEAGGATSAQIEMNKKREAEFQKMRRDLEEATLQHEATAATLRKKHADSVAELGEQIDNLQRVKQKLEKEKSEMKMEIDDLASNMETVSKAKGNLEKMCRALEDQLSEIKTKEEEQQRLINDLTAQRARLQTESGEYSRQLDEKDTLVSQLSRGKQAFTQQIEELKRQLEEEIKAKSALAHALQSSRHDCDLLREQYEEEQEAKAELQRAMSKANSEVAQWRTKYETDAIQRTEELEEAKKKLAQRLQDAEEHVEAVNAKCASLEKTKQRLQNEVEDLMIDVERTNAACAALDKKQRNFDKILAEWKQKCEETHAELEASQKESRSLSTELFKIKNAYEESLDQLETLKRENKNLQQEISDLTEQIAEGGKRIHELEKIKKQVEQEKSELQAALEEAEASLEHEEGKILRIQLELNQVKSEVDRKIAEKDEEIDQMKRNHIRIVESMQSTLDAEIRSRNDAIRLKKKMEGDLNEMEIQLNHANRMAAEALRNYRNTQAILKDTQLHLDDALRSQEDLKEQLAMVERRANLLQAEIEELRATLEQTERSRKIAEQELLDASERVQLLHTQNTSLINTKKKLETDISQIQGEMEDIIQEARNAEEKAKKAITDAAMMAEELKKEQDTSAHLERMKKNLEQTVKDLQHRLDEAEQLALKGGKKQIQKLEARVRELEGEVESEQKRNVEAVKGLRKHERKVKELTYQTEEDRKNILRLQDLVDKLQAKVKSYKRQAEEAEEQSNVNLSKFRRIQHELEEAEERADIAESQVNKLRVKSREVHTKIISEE
UniProt O14983: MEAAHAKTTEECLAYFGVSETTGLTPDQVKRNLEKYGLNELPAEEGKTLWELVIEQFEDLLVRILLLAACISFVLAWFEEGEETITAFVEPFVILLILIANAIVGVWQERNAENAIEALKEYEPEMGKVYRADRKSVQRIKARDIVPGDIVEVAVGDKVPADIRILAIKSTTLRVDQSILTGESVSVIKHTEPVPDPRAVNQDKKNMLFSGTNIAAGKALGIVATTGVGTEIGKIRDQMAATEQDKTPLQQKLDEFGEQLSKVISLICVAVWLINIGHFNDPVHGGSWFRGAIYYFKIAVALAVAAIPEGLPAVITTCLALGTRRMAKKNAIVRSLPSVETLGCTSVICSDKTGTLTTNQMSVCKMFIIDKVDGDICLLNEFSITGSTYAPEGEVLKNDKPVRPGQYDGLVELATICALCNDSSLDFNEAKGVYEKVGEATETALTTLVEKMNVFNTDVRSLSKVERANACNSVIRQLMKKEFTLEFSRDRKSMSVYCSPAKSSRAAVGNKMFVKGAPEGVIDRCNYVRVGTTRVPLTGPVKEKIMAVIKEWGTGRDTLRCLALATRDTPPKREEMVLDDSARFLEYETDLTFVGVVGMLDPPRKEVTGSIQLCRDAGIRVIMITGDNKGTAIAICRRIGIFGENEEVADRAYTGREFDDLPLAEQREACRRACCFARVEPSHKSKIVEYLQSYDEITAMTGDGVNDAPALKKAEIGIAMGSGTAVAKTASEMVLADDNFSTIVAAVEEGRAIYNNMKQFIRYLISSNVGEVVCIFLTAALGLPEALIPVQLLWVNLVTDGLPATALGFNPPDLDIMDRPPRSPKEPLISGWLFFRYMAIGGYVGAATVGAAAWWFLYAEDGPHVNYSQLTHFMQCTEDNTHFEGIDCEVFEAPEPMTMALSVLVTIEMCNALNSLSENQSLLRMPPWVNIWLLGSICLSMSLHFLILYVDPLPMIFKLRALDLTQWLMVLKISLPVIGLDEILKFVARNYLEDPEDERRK
UniProt P35609: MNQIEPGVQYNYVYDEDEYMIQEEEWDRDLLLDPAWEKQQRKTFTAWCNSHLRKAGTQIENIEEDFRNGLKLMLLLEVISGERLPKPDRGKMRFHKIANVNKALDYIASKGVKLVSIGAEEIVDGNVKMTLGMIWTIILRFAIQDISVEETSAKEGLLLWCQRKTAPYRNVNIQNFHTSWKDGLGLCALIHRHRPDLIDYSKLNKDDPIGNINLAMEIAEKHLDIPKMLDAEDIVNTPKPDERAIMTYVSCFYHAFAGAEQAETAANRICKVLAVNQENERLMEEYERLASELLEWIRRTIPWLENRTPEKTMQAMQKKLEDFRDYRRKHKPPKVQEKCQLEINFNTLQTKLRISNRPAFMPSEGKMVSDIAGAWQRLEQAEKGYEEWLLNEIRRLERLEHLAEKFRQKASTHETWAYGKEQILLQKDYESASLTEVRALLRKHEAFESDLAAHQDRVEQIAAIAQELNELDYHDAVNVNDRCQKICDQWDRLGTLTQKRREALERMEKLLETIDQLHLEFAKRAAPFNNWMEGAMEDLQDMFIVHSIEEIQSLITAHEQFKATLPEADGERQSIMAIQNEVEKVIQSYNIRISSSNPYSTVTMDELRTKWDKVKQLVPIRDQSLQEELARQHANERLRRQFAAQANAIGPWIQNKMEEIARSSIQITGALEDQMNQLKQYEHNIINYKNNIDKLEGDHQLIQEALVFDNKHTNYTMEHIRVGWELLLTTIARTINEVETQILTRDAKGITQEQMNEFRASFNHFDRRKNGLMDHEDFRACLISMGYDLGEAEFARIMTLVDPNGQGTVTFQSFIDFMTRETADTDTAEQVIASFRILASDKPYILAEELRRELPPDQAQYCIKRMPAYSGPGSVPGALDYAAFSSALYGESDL

Biological target: coiled-coil domain-containing protein 78 (CCDC78), wild type, of healthy control muscle (human (endogenous in muscle tissue)) (UniProt A2IDD5)
Assay: affinity purification with mass spectrometry; muscle lysate of a healthy control precipitated with anti-CCDC78 (AV53233) cross-linked with DSS to magnetic beads; SDS-PAGE, Coomassie blue; seven bands cut out, digested with trypsin, nLC-nESI-HRMS/MS, Mascot search

Substance | binding
calsequestrin1 (from UniProt P31415 35-396) | binds
myosin-1 (MYH1) (from UniProt P12882 1-1939) | binds
sarco-endoplasmic reticulum calcium ATPase1 (from UniProt O14983 1-1001) | binds
alpha-actinin-2 (ACTN2) (from UniProt P35609 1-894) | binds
